Results taken from PMC10649565.

By UniProt entry, the sequences of proteins in these tests, tags left out. Where a name states a change or a piece, a line headed by the entry shows the natural chain unless it says otherwise.
UniProt O14893: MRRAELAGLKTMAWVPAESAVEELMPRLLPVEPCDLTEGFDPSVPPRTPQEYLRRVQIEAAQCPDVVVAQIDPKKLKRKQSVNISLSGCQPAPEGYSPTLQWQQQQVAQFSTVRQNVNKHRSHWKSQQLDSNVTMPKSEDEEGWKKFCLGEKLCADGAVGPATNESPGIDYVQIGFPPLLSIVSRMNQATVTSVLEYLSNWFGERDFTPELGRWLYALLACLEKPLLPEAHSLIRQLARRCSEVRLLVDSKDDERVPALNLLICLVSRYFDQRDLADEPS
UniProt P23443: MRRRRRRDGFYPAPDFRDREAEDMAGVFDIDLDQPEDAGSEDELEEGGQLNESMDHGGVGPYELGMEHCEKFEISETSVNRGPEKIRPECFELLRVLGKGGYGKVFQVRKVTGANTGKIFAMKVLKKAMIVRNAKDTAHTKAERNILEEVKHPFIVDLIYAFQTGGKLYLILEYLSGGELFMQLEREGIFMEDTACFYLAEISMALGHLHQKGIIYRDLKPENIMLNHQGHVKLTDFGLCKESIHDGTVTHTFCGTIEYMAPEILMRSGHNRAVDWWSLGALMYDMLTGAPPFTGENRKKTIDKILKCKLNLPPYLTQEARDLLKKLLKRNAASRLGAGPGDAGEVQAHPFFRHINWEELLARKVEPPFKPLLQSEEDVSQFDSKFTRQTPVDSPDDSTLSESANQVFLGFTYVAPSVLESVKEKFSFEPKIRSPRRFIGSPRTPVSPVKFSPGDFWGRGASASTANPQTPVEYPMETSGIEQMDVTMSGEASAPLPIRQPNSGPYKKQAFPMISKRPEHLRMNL

How the values were obtained:
[1] = molecular target: Gemin2 (endogenous) (human (endogenous in HEK293 cells)) (UniProt O14893); experiment: co-IP; endogenous immunopurification: 1 µg antibody on protein G/protein A beads, 1 mg HEK293 S100 extract, 2 h at 4 °C, washed with 50 mM Tris pH 7.5, 150 mM NaCl, 1 mM EDTA, 1 mM EGTA, 0.01% Igepal; Western blot
GST-Gemin2 S166A (human) = GST-Gemin2 S166A (human) (UniProt O14893); experiment: pull-down; recombinant GST proteins on glutathione Sepharose 4B incubated 2 h at 4 °C with HEK293T S100 (cytoplasmic) extract, washed 3 times with lysis buffer; Western blot; only the target purified
GST-Gemin2 S166D (human) = GST-Gemin2 S166D (human) (UniProt O14893); experiment: as above
GST-Gemin2 S81A (human) = GST-Gemin2 S81A (human) (UniProt O14893); experiment: as above
GST-Gemin2 S81D (human) = GST-Gemin2 S81D (human) (UniProt O14893); experiment: as above
[2] = molecular target: GST-Gemin2 wild type (wt) (human) (UniProt O14893); experiment: as above
GFP-Gemin2 wt (human) = GFP-Gemin2 wt (human) (UniProt O14893); experiment: co-IP; GFP immunopurification: S100 extracts of doxycycline-induced (0.1 µg/mL, 24 h) Flp-In T-REx 293 cells on GFP-Trap beads, at least 2 h at 4 °C, washed 3 times with DPBS; Western blot

Measured: binding

ribosomal protein S6 kinase beta-1 (p70S6K) (from UniProt P23443) (enzyme)
binds: all assays above

These are yes or no findings as the source states them, for the method shown. In cells and extracts the contact can be indirect. Binding calls can cover weak binding; strength is not graded here.
